This assay addresses FLAG-tagged wild-type DOCK2 expressed in HEK-293T cells (murine) (UniProt Q8C3J5). Kind of assay: co-IP; FLAG- and GFP-tagged DOCK2 co-expressed in HEK-293T cells; extracts immunoprecipitated with anti-FLAG M2 or anti-GFP antibody (reciprocal), immunoblotting.

The chains behind the UniProt entries cited, without tags or fusion partners.
UniProt Q8C3J5: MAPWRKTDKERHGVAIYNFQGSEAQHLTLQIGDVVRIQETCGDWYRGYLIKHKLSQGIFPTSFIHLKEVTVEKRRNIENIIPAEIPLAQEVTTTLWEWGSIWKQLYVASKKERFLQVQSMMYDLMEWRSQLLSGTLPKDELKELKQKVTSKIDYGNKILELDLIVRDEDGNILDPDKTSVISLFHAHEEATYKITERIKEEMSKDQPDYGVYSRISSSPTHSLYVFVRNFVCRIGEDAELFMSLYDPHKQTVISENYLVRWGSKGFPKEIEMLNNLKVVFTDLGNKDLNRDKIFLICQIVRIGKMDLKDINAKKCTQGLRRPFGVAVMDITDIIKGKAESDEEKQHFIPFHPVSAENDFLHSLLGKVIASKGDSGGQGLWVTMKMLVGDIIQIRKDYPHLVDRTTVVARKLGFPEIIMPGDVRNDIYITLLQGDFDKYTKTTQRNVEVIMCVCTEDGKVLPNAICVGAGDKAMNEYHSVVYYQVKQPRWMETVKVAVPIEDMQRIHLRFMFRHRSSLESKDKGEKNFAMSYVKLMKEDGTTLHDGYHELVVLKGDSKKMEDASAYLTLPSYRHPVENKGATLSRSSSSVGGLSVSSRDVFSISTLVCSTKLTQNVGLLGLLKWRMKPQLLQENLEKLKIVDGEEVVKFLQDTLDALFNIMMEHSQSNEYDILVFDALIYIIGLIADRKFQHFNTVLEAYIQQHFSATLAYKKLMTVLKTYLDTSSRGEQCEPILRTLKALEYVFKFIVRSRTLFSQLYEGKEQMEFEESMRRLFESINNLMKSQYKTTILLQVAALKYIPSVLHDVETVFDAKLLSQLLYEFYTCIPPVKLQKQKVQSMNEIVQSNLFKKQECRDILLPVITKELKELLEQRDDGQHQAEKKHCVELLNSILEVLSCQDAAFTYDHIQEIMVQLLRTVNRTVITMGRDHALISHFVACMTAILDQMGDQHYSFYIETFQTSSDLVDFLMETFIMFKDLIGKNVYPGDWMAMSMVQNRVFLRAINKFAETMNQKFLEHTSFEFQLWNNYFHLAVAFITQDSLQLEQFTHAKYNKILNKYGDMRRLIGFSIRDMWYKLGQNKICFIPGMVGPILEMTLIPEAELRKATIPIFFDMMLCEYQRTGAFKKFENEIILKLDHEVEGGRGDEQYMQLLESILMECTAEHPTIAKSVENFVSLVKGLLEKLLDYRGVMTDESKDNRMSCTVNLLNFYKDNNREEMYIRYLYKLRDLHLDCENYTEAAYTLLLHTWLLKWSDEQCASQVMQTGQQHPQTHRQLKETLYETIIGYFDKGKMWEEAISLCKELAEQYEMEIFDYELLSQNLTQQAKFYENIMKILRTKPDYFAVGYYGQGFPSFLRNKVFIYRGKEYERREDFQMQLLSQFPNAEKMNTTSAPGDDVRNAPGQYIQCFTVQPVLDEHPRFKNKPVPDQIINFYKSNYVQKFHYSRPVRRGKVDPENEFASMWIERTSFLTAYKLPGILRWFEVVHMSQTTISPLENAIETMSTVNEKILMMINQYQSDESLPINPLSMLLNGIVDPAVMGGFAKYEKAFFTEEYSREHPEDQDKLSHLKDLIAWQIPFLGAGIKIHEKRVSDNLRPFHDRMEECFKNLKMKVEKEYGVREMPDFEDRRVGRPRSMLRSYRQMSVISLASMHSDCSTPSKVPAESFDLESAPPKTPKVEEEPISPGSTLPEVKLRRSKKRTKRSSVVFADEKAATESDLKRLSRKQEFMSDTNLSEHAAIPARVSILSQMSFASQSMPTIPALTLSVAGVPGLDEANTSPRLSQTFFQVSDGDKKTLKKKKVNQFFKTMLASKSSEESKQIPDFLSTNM

Here are results for 1 substance from PMC3458822, “Dimerization of DOCK2 Is Essential for DOCK2-Mediated Rac Activation and Lymphocyte Migration” (PLoS ONE, 2012).

Results are given in words; binding and its absence hold for the method and conditions named. Binding seen in cells or lysates may run through a third protein. Some entries that bind do so weakly or less than the wild type.

Turning to “FLAG-tagged wild-type DOCK2 expressed in HEK-293T cells (from UniProt Q8C3J5 1-1828)”, the binding result is reported as “binds”.
